Experimental data as given in patent US10933061B2 (Shepherd Therapeutics, Inc., priority 2017, dated 2021).
pIC50: −log10 of the molar value.

Key:
Assay in all cases: cells
SK-LMS-1 = conditions: Homo sapiens, SK-LMS-1, 72 h
MSTO211H = conditions: Homo sapiens, MSTO-211H, 72 h
HS766T = conditions: 72 h
CHP212 = conditions: Homo sapiens, CHP-212, 72 h
BXPC3 = conditions: Homo sapiens, BXPC-3, 72 h
RH30 = conditions: Rh30, 72 h
TOV112D = conditions: Homo sapiens, 72 h
STC-1 = conditions: STC-1, 72 h
TC71 = conditions: TC-71, 72 h
SNU16 = conditions: Homo sapiens, SNU-16, 72 h
COV362 = conditions: COV362, 72 h
RH41 = conditions: Homo sapiens, Rh41, 72 h

Cc1cc(/C=C/c2ccc3cc(N(C)C)ccc3[n+]2C)c(C)n1-c1ccccc1 [pyrvinium pamoate, 3-carboxy-1-[(3-carboxy-2-oxidonaphthalen-1-yl)methyl]naphthalen-2-olate;2-[(E)-2-(2,5-dimethyl-1-phenylpyrrol-3-yl)ethenyl]-N,N,1-trimethylquinolin-1-ium-6-amine] gave a pIC50 (SK-LMS-1) of 4.70, a pIC50 (MSTO211H) of 3.36 and a pIC50 (HS766T) of 4.22. The pIC50 (CHP212) was 4.22, the pIC50 (BXPC3) was 4.30 and the pIC50 (RH30) was 4.40. It also gave a pIC50 (TOV112D) of 4.15, a pIC50 (STC-1) of 5.00 and a pIC50 (TC71) of 4.15. The pIC50 (SNU16) was 4.22, the pIC50 (COV362) was 3.30 and the pIC50 (RH41) was 4.70.
